Data: PMC10163288
This is one part of the list.

B1: il2ra_site2_3nfp_sap_15_mot_HHH_b1_05628_af2_000000064_0001_19_35_H_._71fa3b3ce36e4cc21c7110f2bf27d1ce_0001_af2_0002_0000400023_0000001_0_0001 (protein)
chain: SSSSDEEERERKIREELEEAERRGDEELFRRLLARLVQLAFEYNNHQLFFELAELLYKNNSSSSS
B2: il2ra_site2_3nfp_sap_25_mot_HHH_b1_04756_000000059_0001_41_55_H_._698813b5b2907ad46adb08327c7f7b71_0001_0001_0000500041_0000001_0_0001 (protein)
chain: SSSSSDWREYIEAALELLKRATNEEEFERIFELVRLAIESRNDPELQEELEEIEEEFKKGSSSSS
B3: il2ra_site1_2b5i_normal_mot_HHH_b1_08745_af2_000000166_0001_39_57_H_._HHH_b1_02223_0001_0000200006_0000001_0_af2pred_0001_af2pred_1 (protein)
chain: SSSSSSRNEEVFELFEEADRLDKNGDEEEAEKVLEEARELAEELGNRSALRLVEAMLKLSSSSSS
B4: il2ra_site1_1z92_normal_mot_HHH_b2_07758_000000290_0001_1_17_H_._HHH_b2_04931_0001_0000200015_0000001_1_af2pred_0001_af2pred_1 (protein)
chain: SSSSDELEKNARYIVRAMVETAGLSEEQEEELRELARELVERGLSWREIFEILDRLAAKLSSSSS
B5: il2ra_site1_3nfp_sap_14_mot_HHH_b1_05523_000000054_0001_1_19_H_._HHH_b2_06744_af2_0001_0000200032_0000001_0_0001_af2pred_0001_af2pred_swapped (protein)
chain: DKVAKLLIRLAIEEDSKRNLKKILEQAERKAGDPEEAERLLQELIEELLGDPEEAEKIVEEIKRR
B6: il2ra_site2_3nfp_normal_mot_HHH_b1_05918_af2_000000127_0001_23_40_H_._HHH_b2_05419_0001_0000400019_0000001_0 (protein)
chain: SSSSEAEEYLEAALLLAELALEEGDPEQARKSLELAFQLAEDAGDEEVLEEVEELLREVTSSSSS
B7: il2ra_site2_2erj_sap_25_mot_HHH_b1_02968_000000142_0001_22_39_H_._09869709d06cb525cd55f400c7a8f8a0_0001_af2_0001_0000300018_0000001_0_0001_af2pred_0001_1_af2pre … (protein)
chain: SSSSSDREEVEEEVRELLEEAERIPDIRRALELLQEAAQLADEIGDPELFELVDEVLQRLSSSSS
B8: il2ra_site2_3nfp_normal_mot_HHH_b1_03957_af2_000000091_0001_1_21_H_._HEEHE_2417_0001_0000300011_0000001_0 (protein)
chain: DSEEVVKAAVESLARFAGVPSVSVSVENGEITVEIEGDDRAAESLELALEIFARRRGIPIHVEVE
B9: il2ra_site1_1z92_normal_mot_31dab337c75776deac3d6f68dc8cd1f9_0001_000000144_0001_35_49_H_._461c5b8021308318a9a61a4e77c13547_0001_0001_0000300020_0000001_0 (protein)
chain: SEEEEEVIEIAAELAGVPPEHIRSILRAVKFAAGGDPRHIERDVEIFLRIAGDPAVEALLEALRR
B10: il2ra_site2_2erj_sap_21_mot_b21041926606bcd66a54c4cea8303fc2_0001_1_af2_000000031_0001_15_29_H_._HHH_b2_06202_af2_0001_0000500031_0000001_0_0001_af2pred_0001_1_ … (protein)
chain: SSSSSDEEEVRRLVEELLEEAKKIKDLREALEVLQEASRLAAEADDEELIELIRKVLQELSSSSS
B11: il2ra_site1_2b5i_normal_mot_0bad3e1dd0b580ac51794e340135530b_0001_af2_000000007_0001_1_12_H_._HHH_b2_00048_0001_0000200010_0000001_0_af2pred_dldesign_0_af2pred (protein)
chain: SSSSSSSPLEEEVRRLLEEAKTLKDFEELNKKLYEALFHARKARDPALVAEVEEVYKELSSSSSS
B12: il2ra_site1_3nfp_sap_12_mot_806eb045a8cbe0685dcd243f9811a1cd_0001_af2_000000070_0001_52_62_H_._45d91642349a1af72601d12b97c7d28f_0001_0001_0000300027_0000001_0_0 … (protein)
chain: DLEEELERLLREQGLPPKMVRLLLDMLRLLAEKLGDPEEAAERLIERLRRAGTPQAARLLEELLK
B13: il2ra_site2_3nfp_sap_23_mot_HHH_b1_02369_000000291_0001_21_37_H_._HHH_b2_05547_af2_0001_0000300005_0000001_0_0001 (protein)
chain: SSSSSEEVEEAERLAEEVLKILEERGDERAFKYVRAVLELLRRTQDPRLAELLREYAETVSSSSS
B14: il2ra_site2_3nfp_normal_mot_HHH_b1_00660_af2_000000090_0001_40_57_H_._HHH_b1_03264_af2_0001_0000800038_0000001_0_af2pred_0001_af2pred_1_swapped (protein)
chain: SSSSDEEEEVKRLLEEAEELLKKGNPEEARKLARRASALAAEEDNHELFILALELLERLESSSSS
B15: il2ra_site1_2b5i_sap_10_mot_HHH_b1_06521_af2_000000219_0001_1_19_H_._4c4ac6cabe4c261757e68d3976ab26f5_0001_af2_0001_0000700057_0000001_0_0001_af2pred_dldesign_0 … (protein)
chain: SSSSDESYDEIYDLFNEALKLRKEGKYEEAKKLLEEALELAKKNKDEKIIAEIEYLLSKLSSSSS
B16: il2ra_site1_2b5i_normal_mot_2cbe48e66a1f39b3fed734b245ab0a04_0001_000000015_0001_17_31_H_._HHH_b2_01252_0001_0000300008_0000001_0_af2pred_dldesign_0_af2pred (protein)
chain: SSSSSDPAEVRARVEELIAKAKELEDEEERDKVLTEALLLARKGRDPELIARVEAVAKELSSSSS
B17: il2ra_site1_3nfp_sap_13_mot_HHH_b1_08723_000000044_0001_1_15_H_._ab64a61eb8ed0a9ede620dc4fdff3441_0001_af2_0001_0000300008_0000001_0_0001_af2pred_0001_af2pred_1 … (protein)
chain: TAEELIERLVRAAVELNNPKLLRKILEDLEKNLGDPEEAERVLKELIEKVLGDPEEAERLVEEAK
B18: il2ra_site2_3nfp_sap_27_mot_HHH_b1_04032_000000208_0001_43_56_H_._1e732a8f1387564f994c80782a8510f9_0001_1_0001_0000300013_0000001_0_0001_af2pred_0001_af2pred (protein)
chain: SSSSSEEVEKLIEEAKELLERGNPEEAEKVLRRAALEAAKAGDFELFAELNRLLEKVLELGSSSS
B19: il2ra_site1_3nfp_normal_mot_HHH_b2_05545_af2_000000027_0001_43_57_H_._HHH_b2_07739_0001_0000400036_0000001_0_af2pred_0001_af2pred_1_swapped (protein)
chain: SSSSSSKEEVEIFERVLKRIAQSKDPEERRELLKELERLLRELGSRAALKFVERLARRVNSSSSS

target: il2ra, P01589; experiment: yeast display titration

Apparent Kd, inactive:
B1 no binding seen
B2 no binding seen
B3 no binding seen
B4 no binding seen
B5 no binding seen
B6 no binding seen
B7 no binding seen
B8 no binding seen
B9 no binding seen
B10 no binding seen
B11 no binding seen
B12 no binding seen
B13 no binding seen
B14 no binding seen
B15 no binding seen
B16 no binding seen
B17 no binding seen
B18 no binding seen
B19 no binding seen

Already shown: an excerpt of the list.
Apparent Kd, inactive:
B11 no binding seen
B12 no binding seen
B13 no binding seen
B14 no binding seen
